Laboratory results reported in paper PMC6802650.
No constants are given. Whether binding was seen depends on the method and setting. In cells and extracts the contact can be indirect. Some entries that bind do so weakly or less than the wild type.

Amino acid sequences for entries named in this document (tags omitted). A change or cut given only in a name is not applied to a line headed by its entry.
UniProt P56696: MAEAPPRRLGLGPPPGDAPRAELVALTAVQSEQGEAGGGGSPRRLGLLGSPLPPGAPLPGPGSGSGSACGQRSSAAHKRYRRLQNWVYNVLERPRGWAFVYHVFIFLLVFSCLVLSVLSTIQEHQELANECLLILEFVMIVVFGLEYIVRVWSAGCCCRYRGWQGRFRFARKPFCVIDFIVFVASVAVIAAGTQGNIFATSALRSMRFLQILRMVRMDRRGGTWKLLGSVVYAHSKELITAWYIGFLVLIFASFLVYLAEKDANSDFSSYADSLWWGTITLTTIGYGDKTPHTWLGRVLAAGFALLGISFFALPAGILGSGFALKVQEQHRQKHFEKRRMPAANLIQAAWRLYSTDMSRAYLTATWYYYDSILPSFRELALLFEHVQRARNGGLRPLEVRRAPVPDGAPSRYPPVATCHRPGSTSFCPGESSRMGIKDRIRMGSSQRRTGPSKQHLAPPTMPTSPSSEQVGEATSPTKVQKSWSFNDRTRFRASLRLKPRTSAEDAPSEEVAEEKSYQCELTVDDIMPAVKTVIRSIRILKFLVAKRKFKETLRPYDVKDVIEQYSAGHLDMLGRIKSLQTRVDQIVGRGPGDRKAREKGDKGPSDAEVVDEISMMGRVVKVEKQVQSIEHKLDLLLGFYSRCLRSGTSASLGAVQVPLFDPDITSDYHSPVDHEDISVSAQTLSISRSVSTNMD

Molecular target: FLAG-tagged WT KCNQ4 (human) (UniProt P56696)
Assay: co-IP; cells cotransfected with FLAG-tagged WT KCNQ4 and Myc-tagged KCNQ4 clones; 36 h after transfection whole-cell lysates immunoprecipitated with anti-FLAG beads and immunoblotted

Row | Substance | binding
1 | Myc-tagged KCNQ4 p.L281M (from UniProt P56696 1-695) | binds
2 | Myc-tagged KCNQ4 p.L295P (from UniProt P56696 1-695) | binds
3 | Myc-tagged KCNQ4 p.N264S (from UniProt P56696 1-695) | binds
4 | Myc-tagged KCNQ4 p.R433W (from UniProt P56696 1-695) | binds
5 | Myc-tagged KCNQ4 p.S269F (from UniProt P56696 1-695) | binds
6 | Myc-tagged KCNQ4 p.S273A (from UniProt P56696 1-695) | binds
7 | Myc-tagged KCNQ4 p.T278A (from UniProt P56696 1-695) | binds
